{
  "sequences": {"note": "The chains behind the UniProt entries cited, without tags or fusion partners. Where a name states a change or a piece, a line headed by the entry shows the natural chain unless it says otherwise. Residues count along the entry.", "UniProt Q8WTV0": "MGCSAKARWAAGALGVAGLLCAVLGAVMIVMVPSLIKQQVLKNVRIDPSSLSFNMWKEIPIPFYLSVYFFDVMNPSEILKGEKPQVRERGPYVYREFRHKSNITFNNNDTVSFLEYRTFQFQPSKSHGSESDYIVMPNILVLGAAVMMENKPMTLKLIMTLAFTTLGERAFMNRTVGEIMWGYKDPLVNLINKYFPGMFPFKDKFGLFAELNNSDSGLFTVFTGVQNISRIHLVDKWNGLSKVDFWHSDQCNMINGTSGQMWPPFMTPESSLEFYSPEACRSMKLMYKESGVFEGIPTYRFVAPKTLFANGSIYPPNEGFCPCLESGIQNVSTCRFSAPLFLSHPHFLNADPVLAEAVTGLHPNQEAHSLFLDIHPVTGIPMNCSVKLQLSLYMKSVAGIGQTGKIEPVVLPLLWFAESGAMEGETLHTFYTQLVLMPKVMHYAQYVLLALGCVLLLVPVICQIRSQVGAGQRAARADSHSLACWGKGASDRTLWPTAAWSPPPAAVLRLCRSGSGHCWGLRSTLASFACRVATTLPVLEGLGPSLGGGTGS", "UniProt P02769, residues 25-607": "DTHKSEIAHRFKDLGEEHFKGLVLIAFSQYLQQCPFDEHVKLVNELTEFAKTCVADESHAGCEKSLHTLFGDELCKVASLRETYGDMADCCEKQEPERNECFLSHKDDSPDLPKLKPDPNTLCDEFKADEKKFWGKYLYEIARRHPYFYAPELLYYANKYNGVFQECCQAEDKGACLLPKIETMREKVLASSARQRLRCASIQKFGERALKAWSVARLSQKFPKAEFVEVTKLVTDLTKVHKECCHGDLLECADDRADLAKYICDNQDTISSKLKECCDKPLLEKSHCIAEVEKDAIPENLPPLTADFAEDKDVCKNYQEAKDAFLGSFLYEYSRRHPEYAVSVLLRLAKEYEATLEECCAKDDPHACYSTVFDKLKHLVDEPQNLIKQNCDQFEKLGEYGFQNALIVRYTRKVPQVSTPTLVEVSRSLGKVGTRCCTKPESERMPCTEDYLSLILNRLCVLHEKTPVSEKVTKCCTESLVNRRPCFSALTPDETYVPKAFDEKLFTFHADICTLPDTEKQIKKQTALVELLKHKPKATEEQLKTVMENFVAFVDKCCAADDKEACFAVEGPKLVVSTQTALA"},
  "source": "paper PMC5872389",
  "target": "Recombinant human SR-B1 (human) (UniProt Q8WTV0)",
  "test": "atomic force microscopy imaging; receptor (100 μl CD36 or SR-B1 at 0.1 μg/ml) immobilised as a monolayer on glutaraldehyde-APTES mica, blocked with L-glycine, incubated with 100 μl lipoproteins at 0.1 μg/ml (or BSA), washed with PBS; tapping mode in PBS, 1 μm × 1 μm scans; bound particles counted; both purified",
  "note": "No constants are given. Whether binding was seen depends on the method and setting.",
  "data": [
    {"substance": "Bovine serum albumin (from UniProt P02769 25-607)", "values": [
      {"measurement": "binding", "result": "no binding"}
    ]}
  ]
}
